Source: patent US8163939B2, “Ascorbic acid derivative or salt thereof, production method thereof, and cosmetic” (Seikwa Kasei Company, Limited, priority 2007, dated 2012)
For at least one compound, name, drawing or mass did not settle the structure.

Test: Stability Test 1: 2% aqueous solution, pH7, room temperature, 4 weeks (residual rate, odor, coloration)
Type: physicochemical
Method: Aqueous solutions (2%) of various test samples were adjusted to pH7 with a dilute sodium hydroxide aqueous solution, and charged into 50 mL screw tubes, and the tubes were sealed and stored at room temperature for 4 weeks. Thereafter, HPLC measurement were performed (using liquid chromatography manufactured by Tosoh Corp.) and the residual rate was obtained based on the peak area. The residual rate, odor(odor change) and degree of coloration were evaluated based on the following methods and standards, and the results are shown in Table 41.
◯: 80% or more and less than 90%
Δ: 60% or more and less than 80%
X: 20% or more and less than 60%
It was evaluated according to the following criterion by 10 panelists.
Based on the evaluation results, classification was conducted as shown below.
◯: total point of 10 panelists is 25 or more
Δ: total point of 10 panelists is 16 to 24
X: total point of 10 panelists is 15 or less
3: almost no change as compared with that immediately after preparation
2: coloration is observed as compared with that immediately after preparation
1: intense coloration is observed as compared with that immediately after preparation

[1] = storage period 2 weeks, 10 panelists
[2] = storage period 4 weeks, 10 panelists

CCOCC(O)COC1=C(O)C(=O)OC1C(O)CO (stereo not drawn) [Example 7, 3-O-ethylglyceryl ascorbic acid]
Residual rate (storage period 0): ⊚ (⊚: 90% or more)
Coloration (storage period 0, 10 panelists): ◯ (◯: total point of 10 panelists is 25 or more)
Odor (storage period 0, 10 panelists): ◯ (◯: total point of 10 panelists is 25 or more)
Residual rate (storage period 2 weeks): ⊚ (⊚: 90% or more)
Coloration [1]: ◯ (◯: total point of 10 panelists is 25 or more)
Odor [1]: ◯ (◯: total point of 10 panelists is 25 or more)
Residual rate (storage period 4 weeks): ◯ (◯: 80% or more and less than 90%)
Coloration [2]: ◯ (◯: total point of 10 panelists is 25 or more)
Odor [2]: ◯ (◯: total point of 10 panelists is 25 or more)
